Laboratory results: PMC5424160
Results are given in words; binding and its absence hold for the method and conditions named. For part of these data: In cells and extracts the contact can be indirect. Some results given as binding are weak or reduced against the parent protein; the word gives no strength. Where a sequence is shown, tags or fusion partners need not be part of it.

Sequences of proteins named here, by UniProt entry; tags and fusion partners are left off.
UniProt O60563: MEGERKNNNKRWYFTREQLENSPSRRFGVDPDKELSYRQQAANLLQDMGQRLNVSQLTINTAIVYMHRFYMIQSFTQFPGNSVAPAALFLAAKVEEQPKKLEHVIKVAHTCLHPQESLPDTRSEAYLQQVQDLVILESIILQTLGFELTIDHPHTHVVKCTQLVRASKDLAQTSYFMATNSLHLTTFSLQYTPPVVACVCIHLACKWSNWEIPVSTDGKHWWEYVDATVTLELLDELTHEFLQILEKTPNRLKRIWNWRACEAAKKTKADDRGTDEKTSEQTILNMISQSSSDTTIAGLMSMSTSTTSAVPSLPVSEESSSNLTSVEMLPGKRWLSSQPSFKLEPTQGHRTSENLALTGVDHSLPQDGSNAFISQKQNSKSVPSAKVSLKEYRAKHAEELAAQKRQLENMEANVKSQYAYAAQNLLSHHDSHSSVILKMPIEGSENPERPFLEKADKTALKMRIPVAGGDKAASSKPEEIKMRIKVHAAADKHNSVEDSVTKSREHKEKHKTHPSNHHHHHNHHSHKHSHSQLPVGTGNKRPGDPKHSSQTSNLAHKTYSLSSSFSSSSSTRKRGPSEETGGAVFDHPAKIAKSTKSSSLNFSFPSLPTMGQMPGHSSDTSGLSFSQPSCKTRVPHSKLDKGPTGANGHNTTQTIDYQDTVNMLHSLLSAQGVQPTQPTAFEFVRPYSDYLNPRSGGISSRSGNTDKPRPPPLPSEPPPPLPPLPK
UniProt P01106: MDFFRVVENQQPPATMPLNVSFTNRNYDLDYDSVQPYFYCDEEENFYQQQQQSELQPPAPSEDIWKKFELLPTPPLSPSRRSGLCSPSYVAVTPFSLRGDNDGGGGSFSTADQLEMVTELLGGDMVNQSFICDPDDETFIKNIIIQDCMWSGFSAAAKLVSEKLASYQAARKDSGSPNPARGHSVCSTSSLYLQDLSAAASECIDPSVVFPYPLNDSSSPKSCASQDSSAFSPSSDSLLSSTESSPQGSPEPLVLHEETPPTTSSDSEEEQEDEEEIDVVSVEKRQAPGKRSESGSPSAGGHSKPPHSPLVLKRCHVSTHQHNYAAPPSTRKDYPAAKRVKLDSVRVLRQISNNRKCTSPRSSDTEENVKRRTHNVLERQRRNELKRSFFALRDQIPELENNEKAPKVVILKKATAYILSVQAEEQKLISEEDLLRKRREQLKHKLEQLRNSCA
UniProt P50750: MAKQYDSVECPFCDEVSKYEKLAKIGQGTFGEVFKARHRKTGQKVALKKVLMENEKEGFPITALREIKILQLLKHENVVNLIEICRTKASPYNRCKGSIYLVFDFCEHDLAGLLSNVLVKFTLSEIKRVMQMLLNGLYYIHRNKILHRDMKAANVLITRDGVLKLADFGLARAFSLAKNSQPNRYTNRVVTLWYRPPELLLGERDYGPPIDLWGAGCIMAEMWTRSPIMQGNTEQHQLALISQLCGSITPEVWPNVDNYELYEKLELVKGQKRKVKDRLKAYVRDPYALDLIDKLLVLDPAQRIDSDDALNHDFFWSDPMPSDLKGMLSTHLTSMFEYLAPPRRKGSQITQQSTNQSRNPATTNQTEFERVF
UniProt P61244: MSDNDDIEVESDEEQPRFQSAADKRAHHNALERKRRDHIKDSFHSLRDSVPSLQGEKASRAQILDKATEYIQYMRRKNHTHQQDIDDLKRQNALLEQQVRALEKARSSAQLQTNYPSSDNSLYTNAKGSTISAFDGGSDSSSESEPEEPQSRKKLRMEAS

Columns and labels:
HA-CycT1 = HA-CycT1 (UniProt O60563); assay: co-IP; HEK293T cells co-transfected with the two tagged proteins; IP with anti-Flag or anti-HA, immunoblot; low-salt IP buffer (0.5% NP-40, 20 mM HEPES pH 7.5, 150 mM NaCl, 2 mM EDTA)
HA-MYC = HA-MYC (UniProt P01106); assay: as above
GST-CDK9 = GST-CDK9 (UniProt P50750); assay: pull-down; GST pull-down: purified GST fused protein as bait and purified His-tag protein; pull-down buffer 150 mM NaCl, 50 mM Tris pH 7.5, 0.1% NP-40, 5 mM DTT; western blot; both purified
GST-MAX = GST-MAX (UniProt P61244); assay: as above
GST-MYC = GST-MYC (UniProt P01106); assay: as above
His-MYC = His-MYC (UniProt P01106); assay: native gel or EMSA; supershift EMSA: purified His-MYC, His-MAX and His-Menin mixed in EMSA buffer (50 mM HEPES, 150 mM NaCl, 0.2% BSA, 0.02% Tween 20, 0.5 mM MgCl2, 100 uM DTT) with biotinylated E-box DNA, with or without anti-Menin antibody; room temperature, 5% gel; both purified

B1: Flag-Menin (protein, UniProt O00255 1-610)
chain: MGLKAAQKTLFPLRSIDDVVRLFAAELGREEPDLVLLSLVLGFVEHFLAVNRVIPTNVPELTFQPSPAPDPPGGLTYFPVADLSIIAALYARFTAQIRGAVDLSLYPREGGVSSRELVKKVSDVIWNSLSRSYFKDRAHIQSLFSFITGTKLDSSGVAFAVVGACQALGLRDVHLALSEDHAWVVFGPNGEQTAEVTWHGKGNEDRRGQTVNAGVAERSWLYLKGSYMRCDRKMEVAFMVCAINPSIDLHTDSLELLQLQQKLLWLLYDLGHLERYPMALGNLADLEELEPTPGRPDPLTLYHKGIASAKTYYRDEHIYPYMYLAGYHCRNRNVREALQAWADTATVIQDYNYCREDEEIYKEFFEVANDVIPNLLKEAASLLEAGEERPGEQSQGTQSQGSALQDPECFAHLLRFYDGICKWEEGSPTPVLHVGWATFLVQSLGRFEGQVRQKVRIVSREAEAAEAEEPWGEEAREGRRRGPRRESKPEEPPPPKKPALDKGLGTGQGAVSGPPRKPPGTVAGTARGPEGGSTAQVPAPTASPPPEGPVLTFQSEKMKGMKELLVATKINSSAIKLQLTAQSQVQMKKQKVSTPSDYTLSFLKRQRKGL
binding (HA-CycT1): binds | binding (HA-MYC): binds

B2: His-Menin (protein, UniProt O00255 1-610)
chain: B1 chain
binding (GST-CDK9): no binding | binding (GST-MAX): no binding | binding (GST-MYC): binds | binding (His-MYC): binds
